Assay results as given in PubChem BioAssay AID651640 (Broad Institute, 2012).
Hit rate of the full screen: of about 350,000 compounds, about 6,000 (1.7%) were called active. Inconclusive results, whose numbers are uncertain, are shown with a selection of clear calls. No stated cut-off is given here; in the data, active means CPE inhibition above about 20% (passing the limit was not always enough); inconclusive means no clear call, values can overlap the other calls; tested in BHK-21 cells.

Experiment: protection of cells from dengue 2 killing – plate reader, single concentration, primary screen (AID 651640);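 further: 0% = median of neutral control wells and 100% = median of positive control wells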
Conditions: DENV2-infected cells, cytopathic effect rescue, at 9.99 µM, hits give high values

SMILES	CPE inhibition
COc1ccc(S(=O)(=O)Nc2ccc3c(c2)CC(=O)N([C@@H](C)CO)C[C@@H](C)[C@@H](CN(C)C(=O)Nc2cccc4ccccc24)O3)cc1	inconclusive: 31%
COc1ccccc1CNC(=O)C[C@H]1C[C@@H]2c3cc(NC(=O)NC4CCCC4)ccc3O[C@@H]2[C@H](CO)O1	inactive: 11.9%
O=C1NC[C@@H](Cc2cccc3ccccc23)N(CCc2cc(C(F)(F)F)cc(C(F)(F)F)c2)C1=O	inconclusive: 52.6%
O=C(CSc1ccc(Br)cc1)NCC1(N2CCCCC2)CCCCC1	inconclusive: 27.1%
CN(C)c1cccc(-c2csc(N3CCC(C(N)=O)CC3)n2)c1	inconclusive: 23.3%
CN(C(=O)CSCC(=O)Nc1ccc(Cl)cc1)C1CCCCC1	active: 62.2%
C[C@@H]1CCCCO[C@H](CN(C)Cc2ccc(C(F)(F)F)cc2)[C@H](C)CN([C@H](C)CO)C(=O)c2cc(NS(=O)(=O)c3cccs3)ccc2O1	inactive: -0.612%
C[C@H]1CN([C@@H](C)CO)C(=O)Cc2cc(NC(=O)NC3CCCCC3)ccc2O[C@@H]1CN(C)CC1CCCCC1	inconclusive: 25%
Cc1cc(=O)oc2cc(OC(C)C(=O)Nc3ccc(N4CCCCC4)cc3)ccc12 (stereo not drawn)	inconclusive: 70%
COc1ccccc1C(NC(=O)C1CCN(CCOc2ccccc2)CC1)c1ccccn1 (stereo not drawn)	inconclusive: 34%
C[C@H](CO)N1C[C@H](C)[C@@H](CN(C)Cc2ccc(C(=O)O)cc2)OCCCC[C@H](C)Oc2ccc(NC(=O)c3ccncc3)cc2C1=O	inactive: -8.23%
COc1cccc(CNC(=O)C[C@H]2CC[C@H](NC(C)=O)[C@H](CO)O2)c1	inconclusive: 22.4%
O=C(O)CC(NC(=O)C12CC3CC(CC(C3)C1)C2)c1ccc(OC2CCCC2)cc1 (stereo not drawn)	active: 22.3%
CC(C)C#Cc1ccc([C@@H]2[C@@H](C#N)N(C(=O)C3CC3)[C@@H]2CO)cc1	inconclusive: 45.8%
CCC(C)(C)NC(=O)CN(C(=O)C(=O)Nc1ccc2c(c1)OCCO2)N1CCOCC1	inconclusive: 22.7%
O=C(C[C@@H]1C[C@@H]2c3cc(NC(=O)c4ccc5c(c4)OCO5)ccc3O[C@@H]2[C@@H](CO)O1)NCC1CC1	inconclusive: 22.6%
O=C1Nc2ccccc2/C1=N\N=C\c1ccc(O)c(O)c1	inactive: -2.4%
C[C@H](CO)N1C[C@H](C)[C@H](CN(C)Cc2ccc3c(c2)OCO3)OCCCC[C@H](C)Oc2ccc(NC(=O)NC3CCCCC3)cc2C1=O	active: 26.5%
Cc1ccc(Cl)cc1N1CCN(C(=O)c2cn(C)c(=O)c3c2c2ccccc2n3C)CC1	inactive: -0.369%
COc1ccc(C#Cc2cccc(-c3nc(C(=O)O)cc4c3[C@@H](CCO)N(S(=O)C(C)(C)C)C4)c2)cc1OC (stereo partly drawn)	inactive: 0.722%
COc1ccc(S(=O)(=O)N(C)C[C@H]2Oc3c(NC(=O)Nc4ccc5c(c4)OCO5)cccc3C(=O)N([C@H](C)CO)C[C@H]2C)cc1	inactive: 14.6%
CC(C)NC(=O)NCC[C@@H]1CC[C@@H](NS(=O)(=O)c2ccc(Oc3ccccc3)cc2)[C@H](CO)O1	inactive: 1.63%
C[C@H](CO)N1C[C@H](C)[C@@H](CN(C)S(=O)(=O)c2ccc(F)cc2)Oc2c(NS(=O)(=O)c3cccs3)cccc2C1=O	inconclusive: 32.6%
CCN(C)C[C@@H]1Oc2cc(C#CCC3CCCC3)ccc2S(=O)(=O)N([C@@H](C)CO)C[C@H]1C	inconclusive: -2.73%
O=C(COC(=O)c1cc(S(=O)(=O)N2CCOCC2)ccc1Cl)NC1CCCCC1	inconclusive: 39.4%

SMILES	CPE inhibition
Cn1cnc(S(=O)(=O)N2CC[C@@H]3[C@H]2c2cc(C#CC4CCCC4)ccc2N[C@@H]3CO)c1	inactive: -6.74%
COc1ccc(NC(=O)COc2ccccc2Cc2ccccc2)cc1S(N)(=O)=O	inconclusive: 37.3%
O=C(Nc1ccccc1F)N[C@H]1CC[C@@H](CCNC(=O)C2CCC2)O[C@H]1CO	inactive: 2.54%
CCCC(=O)N1CC2(C1)CN(Cc1nccs1)[C@@H](CO)c1[nH]c3cc(OC)ccc3c12	inconclusive: 89.8%
COc1ccc(NC(=O)C2Cc3c(-c4ccc(NC(C)=O)cc4)ccnc3O2)cn1 (stereo not drawn)	inconclusive: 29.9%
CCOc1ccc(C2CC=C(C(C)=O)CN2S(=O)(=O)c2ccc(C)cc2)cc1 (stereo not drawn)	inconclusive: 34.6%
Cc1ccc(C(=O)c2ccc(C)cc2)cc1	inactive: -10.8%
Brc1ccc(-c2nn[nH]n2)cc1	inconclusive: 23.6%
CC(O)(c1cccnc1)c1nc(/C=C/c2ccccc2)cs1 (stereo not drawn)	inactive: 14.5%
CCC1C(=O)NCCN1C(=O)c1cccc(OC2CCN(S(=O)(=O)N(C)C)CC2)c1 (stereo not drawn)	inconclusive: 43.6%
CC(C)(O)C#Cc1ccc([C@H]2[C@@H](CO)N3CCCCN(C(=O)c4ccc(F)cc4)C[C@@H]23)cc1	inconclusive: 72%
CCN1C(=O)[C@H]2[C@@H](c3ccc(C)cc3)N[C@]3(CCCN(CC4CCCCC4)C3=O)[C@H]2C1=O	inconclusive: 75.1%
O=C(NC1CC1)C1CCN(C2CCN(C(=O)CC3=CCCCC3)CC2)CC1	inactive: 1.94%
COCCCC/C(=N\OCCN)c1ccc(C(F)(F)F)cc1	inconclusive: 23.5%
CC1CC(C)C(=O)C(C(CC2CC(=O)NC(=O)C2)OC(=O)CC(=O)c2ccccc2)C1 (stereo not drawn)	inconclusive: 73.9%
COc1ccccc1NCC(=O)N/N=C(\C)c1ccc(Br)s1	active: 23.2%
COc1ccccc1C#Cc1ccc2c(c1)[C@H]1[C@H](CCN1C(=O)c1ccc(F)cc1)[C@@H](CO)N2	active: 54%
CN(C)CC#Cc1ccc([C@H]2[C@@H](CO)N3CCCCN(S(=O)(=O)c4ccccc4)C[C@@H]23)cc1	active: 44.1%
C/C=C/c1ccc([C@H]2[C@@H](CN(C)C(=O)C3CC3)N(C(=O)CC)[C@H]2CO)cc1	inconclusive: 48.7%
COc1ccc(NC(=O)CCSc2nc(C)cs2)cc1	inconclusive: 22.8%
O=C(NCCCCO)c1c(-c2ccccc2)oc2c1C(OCCCCCO)CCC2 (stereo not drawn)	inconclusive: 47.6%
O=C(C[C@H]1CC[C@H](NC(=O)Nc2cccc(F)c2)[C@@H](CO)O1)NCC1CCCCC1	inactive: -6.45%
COc1ccccc1N1CCN(C(=O)CCCCCn2c(=O)[nH]c3ccsc3c2=O)CC1	inconclusive: 21.6%
CC(=O)c1cccc(NC(=O)COC(=O)CCC(=O)c2ccc(F)cc2)c1	inactive: -4.82%
NC(=S)Nc1cccc2[nH]ncc12	inactive: 18.7%

SMILES	CPE inhibition
COc1ccc(-c2cn(CC(=O)N3CCC4(CC3)C(=O)NCN4c3ccccc3)nn2)cc1OC	inconclusive: 30.7%
O=C(C[C@@H]1CC[C@H]2[C@@H](COC[C@@H](O)CN2C(=O)c2cccnc2)O1)NCc1ccccc1	inconclusive: 61.6%
COc1cccc(/C=C2\SC(=S)N(N3C(=O)CCCC3=O)C2=O)c1	inconclusive: 21.5%
CC(C)(C)c1ccc(C(=O)N2CCC(NC(=O)c3ccccc3)CC2)cc1	inconclusive: 24.8%
O=C(c1ccccc1)N1CC2(C1)[C@H](c1ccccc1)[C@@H](CO)N2C(=O)CC1CC1	active: 25.5%
CN(C)C(=O)c1cccc(-c2ccc3c(c2)[C@H]2[C@H](CCN2S(=O)(=O)c2ccccc2)[C@@H](CO)N3)c1	inactive: -3.23%
CCC/C(C(=O)NCCO)=C1/c2ccccc2C(=O)N1c1ccccc1	inconclusive: 62.7%
COc1ccc(S(=O)(=O)Nc2ccc3c(c2)[C@H]2C[C@H](CC(=O)NCC4CC4)O[C@@H](CO)[C@H]2O3)cc1	inconclusive: 24.4%
CC(C)Cc1nnc(NC(=O)Cc2ccccc2[N+](=O)[O-])s1	inactive: 1.02%
COc1ccc(-c2ccc([C@@H]3[C@@H](C#N)N(C(=O)C4CCOCC4)[C@H]3CO)cc2)cc1	inconclusive: 20.4%
O=C(C[C@@H]1CC[C@H]2[C@@H](COC[C@@H](O)CN2S(=O)(=O)c2ccccc2)O1)NCCN1CCCC1	inconclusive: 39.2%
CCCNC(=O)OCc1cccnc1Sc1ccc(C)cc1	inconclusive: 32%
CCN(CC)CCNC(=O)c1cc2cc3ccc(OC)cc3nc2o1	inactive: 4.83%
COc1cccc(S(=O)(=O)N2CC3(CCN(C)CC3)c3c([nH]c4cc(OC)ccc34)[C@@H]2CO)c1	inactive: -1.61%
CCCCCC(=O)N1C[C@@H](n2cc(C3CC3)nn2)[C@H](O)C[C@@H]1c1ccccc1	active: 24.8%
CC(C)NC(=O)N[C@H]1CC[C@H](CC(=O)O)O[C@H]1CO	inactive: -1.21%
COCc1cn(CC[C@@H]2CC[C@H](NC(=O)Nc3ccc(Cl)cc3)[C@@H](CO)O2)nn1	inactive: -4.07%
COC(=O)C1=C(C)N(C)C(=NCc2ccc(C(F)(F)F)cc2)NC1c1ccc(C(F)(F)F)cc1 (stereo not drawn)	inactive: -3.78%
O=C(CSc1ccc(Br)cc1)Nc1ccc(N2CCOCC2)cc1	inconclusive: 86.7%
C/[N+]([O-])=C\c1cccc(OCCN2CCN(c3ncc(C(F)(F)F)cc3Cl)CC2)c1	inconclusive: 25.8%
Cc1noc(C)c1S(=O)(=O)Nc1cccc2c1O[C@H](CN(C)Cc1ccc(C(=O)Nc3ccccc3N)cc1)[C@H](C)CN([C@@H](C)CO)C2=O	inconclusive: 45.6%
CCOc1ccc(NC(=O)C2CCN(S(=O)(=O)c3ccc4c(c3)CC(C)N4C(C)=O)CC2)cc1 (stereo not drawn)	inconclusive: 22.2%
CCC(=O)Nc1ccc2c(c1)C(=O)N(C)C[C@@H](OC)[C@H](C)CN(Cc1ccncc1)[C@H](C)CO2	inconclusive: 29.2%

Single values from the entries so far:
COc1cccc(/C=C2\SC(=S)N(N3C(=O)CCCC3=O)C2=O)c1 | CPE inhibition: inconclusive: 21.5%
CC(C)Cc1nnc(NC(=O)Cc2ccccc2[N+](=O)[O-])s1 | CPE inhibition: inactive: 1.02%
C/[N+]([O-])=C\c1cccc(OCCN2CCN(c3ncc(C(F)(F)F)cc3Cl)CC2)c1 | CPE inhibition: inconclusive: 25.8%
CCOc1ccc(NC(=O)C2CCN(S(=O)(=O)c3ccc4c(c3)CC(C)N4C(C)=O)CC2)cc1 (stereo not drawn) | CPE inhibition: inconclusive: 22.2%
